Laboratory results from publication PMC10571261.
Results are given in words; binding and its absence hold for the method and conditions named. In cells and extracts the contact can be indirect. Some entries that bind do so weakly or less than the wild type. Tags and fused reporters may be left off the sequences shown.

Amino acid sequences for entries named in this document (tags omitted).
UniProt Q15554: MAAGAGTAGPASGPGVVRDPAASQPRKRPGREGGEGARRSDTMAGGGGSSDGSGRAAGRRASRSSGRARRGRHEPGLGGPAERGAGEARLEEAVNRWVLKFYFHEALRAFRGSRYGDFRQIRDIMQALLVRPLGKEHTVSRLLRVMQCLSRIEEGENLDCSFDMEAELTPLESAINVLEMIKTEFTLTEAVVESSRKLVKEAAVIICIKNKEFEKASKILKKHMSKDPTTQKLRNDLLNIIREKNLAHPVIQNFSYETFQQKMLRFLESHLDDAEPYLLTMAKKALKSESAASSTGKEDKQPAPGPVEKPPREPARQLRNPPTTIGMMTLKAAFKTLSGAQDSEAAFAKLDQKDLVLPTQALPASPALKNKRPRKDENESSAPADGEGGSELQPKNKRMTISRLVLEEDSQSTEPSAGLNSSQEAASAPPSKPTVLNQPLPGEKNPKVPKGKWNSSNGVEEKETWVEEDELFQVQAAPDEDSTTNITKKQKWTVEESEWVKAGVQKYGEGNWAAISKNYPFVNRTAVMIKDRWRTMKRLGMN

B1: FLAG-tagged wild-type MCCC2 (amino acids 1–564) (protein, UniProt Q9HCC0-1 23-563)
chain: YHGDSVASLGTQPDLGSALYQENYKQMKALVNQLHERVEHIKLGGGEKARALHISRGKLLPRERIDNLIDPGSPFLELSQFAGYQLYDNEEVPGGGIITGIGRVSGVECMIIANDATVKGGAYYPVTVKKQLRAQEIAMQNRLPCIYLVDSGGAYLPRQADVFPDRDHFGRTFYNQAIMSSKNIAQIAVVMGSCTAGGAYVPAMADENIIVRKQGTIFLAGPPLVKAATGEEVSAEDLGGADLHCRKSGVSDHWALDDHHALHLTRKVVRNLNYQKKLDVTIEPSEEPLFPADELYGIVGANLKRSFDVREVIARIVDGSRFTEFKAFYGDTLVTGFARIFGYPVGIVGNNGVLFSESAKKGTHFVQLCCQRNIPLLFLQNITGFMVGREYEAEGIAKDGAKMVAAVACAQVPKITLIIGGSYGAGNYGMCGRAYSPRFLYIWPNARISVMGGEQAANVLATITKDQRAREGKQFSSADEAALKEPIIKKFEEEGNPYYSSARVWDDGIIDPADTRLVLGLSFSAALNAPIEKTDFGIFRM
B2: FLAG-tagged mutant MCCC2 ∆2–22 (543aa) (protein, UniProt Q9HCC0-1 23-563)
chain: YHGDSVASLGTQPDLGSALYQENYKQMKALVNQLHERVEHIKLGGGEKARALHISRGKLLPRERIDNLIDPGSPFLELSQFAGYQLYDNEEVPGGGIITGIGRVSGVECMIIANDATVKGGAYYPVTVKKQLRAQEIAMQNRLPCIYLVDSGGAYLPRQADVFPDRDHFGRTFYNQAIMSSKNIAQIAVVMGSCTAGGAYVPAMADENIIVRKQGTIFLAGPPLVKAATGEEVSAEDLGGADLHCRKSGVSDHWALDDHHALHLTRKVVRNLNYQKKLDVTIEPSEEPLFPADELYGIVGANLKRSFDVREVIARIVDGSRFTEFKAFYGDTLVTGFARIFGYPVGIVGNNGVLFSESAKKGTHFVQLCCQRNIPLLFLQNITGFMVGREYEAEGIAKDGAKMVAAVACAQVPKITLIIGGSYGAGNYGMCGRAYSPRFLYIWPNARISVMGGEQAANVLATITKDQRAREGKQFSSADEAALKEPIIKKFEEEGNPYYSSARVWDDGIIDPADTRLVLGLSFSAALNAPIEKTDFGIFRM
B3: FLAG-tagged mutant MCCC2 ∆343–372 (534aa) (protein, UniProt Q9HCC0-1)
chain: YHGDSVASLGTQPDLGSALYQENYKQMKALVNQLHERVEHIKLGGGEKARALHISRGKLLPRERIDNLIDPGSPFLELSQFAGYQLYDNEEVPGGGIITGIGRVSGVECMIIANDATVKGGAYYPVTVKKQLRAQEIAMQNRLPCIYLVDSGGAYLPRQADVFPDRDHFGRTFYNQAIMSSKNIAQIAVVMGSCTAGGAYVPAMADENIIVRKQGTIFLAGPPLVKAATGEEVSAEDLGGADLHCRKSGVSDHWALDDHHALHLTRKVVRNLNYQKKLDVTIEPSEEPLFPADELYGIVGANLKRSFDVREVIARIVDGSNGVLFSESAKKGTHFVQLCCQRNIPLLFLQNITGFMVGREYEAEGIAKDGAKMVAAVACAQVPKITLIIGGSYGAGNYGMCGRAYSPRFLYIWPNARISVMGGEQAANVLATITKDQRAREGKQFSSADEAALKEPIIKKFEEEGNPYYSSARVWDDGIIDPADTRLVLGLSFSAALNAPIEKTDFGIFRM

target: Telomeric repeat-binding factor 2 (TRF2) (human (endogenous in HCT116)) (UniProt Q15554); assay: co-IP; anti-TRF2 antibody (~2 μg) on Protein A/G magnetic beads, IgG as negative control; NP-40 whole-cell lysate, 4 ℃ overnight, eight washes with lysis buffer, immunoblot; extract of MCCC2-FLAG expressing cells (Fig. 4A) or lysates of MCCC2 KO cells stably expressing FLAG-tagged MCCC2 constructs (Fig. 4E)

binding, binds:
B1
B2
B3
